Some of the results follow.
Columns and labels:
Test in all cases: glycan array binding signal (z-score within array); higher = stronger binding
Settings in all cases: glycan notation: IUPAC condensed, linker removed
Neu5Ac(a2-3)Gal = target: Neu5Ac(a2-3)Gal
In short: (§1)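 Glycan array data came from 3228 arrays in the Consortium for Functional Glycomics database, and only arrays with an available protein sequence were kept. Glycan names were put into IUPAC-condensed notation, and columns mapping to the same glycan were averaged. The binding signal is a within-array Z-score, averaged across arrays of one protein sequence run at different concentrations or buffers and across linkers. A negative Z-score can be read as non-binding.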

[1] = target: Neu5Ac(a2-3)Gal(b1-3)GalNAc
In short: as §1

[2] = target: Neu5Ac(a2-3)Gal(b1-3)GalNAc(b1-3)Gal(a1-4)Gal(b1-4)Glc
In short: as §1

[3] = target: Neu5Ac(a2-3)Gal(b1-3)GalNAc(b1-4)[Neu5Ac(a2-3)]Gal(b1-4)Glc
In short: as §1

[4] = target: Neu5Ac(a2-3)Gal(b1-3)GalNAc6S
In short: as §1

[5] = target: Neu5Ac(a2-3)Gal(b1-3)GlcNAc
In short: as §1

[6] = target: Neu5Ac(a2-3)Gal(b1-3)GlcNAc(b1-3)Gal(b1-3)GlcNAc
In short: as §1

[7] = target: Neu5Ac(a2-3)Gal(b1-3)GlcNAc(b1-3)Gal(b1-4)GlcNAc
In short: as §1

[8] = target: Neu5Ac(a2-3)Gal(b1-3)GlcNAc6S
In short: as §1

[9] = target: Neu5Ac(a2-3)Gal(b1-3)[Fuc(a1-4)]GlcNAc
In short: as §1

[10] = target: Neu5Ac(a2-3)Gal(b1-3)[Fuc(a1-4)]GlcNAc(b1-3)Gal(b1-4)[Fuc(a1-3)]GlcNAc
In short: as §1

[11] = target: Neu5Ac(a2-3)Gal(b1-3)[Neu5Ac(a2-3)Gal(b1-4)]GlcNAc
In short: as §1

[12] = target: Neu5Ac(a2-3)Gal(b1-3)[Neu5Ac(a2-6)]GalNAc
In short: as §1

Neu5Ac(a2-3)Gal(b1-4)Glc = target: Neu5Ac(a2-3)Gal(b1-4)Glc
In short: as §1

[13] = target: Neu5Ac(a2-3)Gal(b1-4)GlcNAc
In short: as §1

[14] = target: Neu5Ac(a2-3)Gal(b1-4)GlcNAc(b1-3)Gal(b1-3)GlcNAc
In short: as §1

[15] = target: Neu5Ac(a2-3)Gal(b1-4)GlcNAc(b1-3)Gal(b1-4)GlcNAc
In short: as §1

[16] = target: Neu5Ac(a2-3)Gal(b1-4)GlcNAc(b1-3)Gal(b1-4)GlcNAc(b1-3)Gal(b1-4)GlcNAc
In short: as §1

[17] = target: Neu5Ac(a2-3)Gal(b1-4)GlcNAc(b1-3)Gal(b1-4)[Fuc(a1-3)]GlcNAc
In short: as §1

[18] = target: Neu5Ac(a2-3)Gal(b1-4)GlcNAc(b1-6)[Gal(b1-3)]GalNAc
In short: as §1

[19] = target: Neu5Ac(a2-3)Gal(b1-4)GlcNAc6S
In short: as §1

[20] = target: Neu5Ac(a2-3)Gal(b1-4)[Fuc(a1-3)]GlcNAc
In short: as §1

[21] = target: Neu5Ac(a2-3)Gal(b1-4)[Fuc(a1-3)]GlcNAc(b1-3)Gal
In short: as §1

[22] = target: Neu5Ac(a2-3)Gal(b1-4)[Fuc(a1-3)]GlcNAc(b1-3)Gal(b1-4)GlcNAc
In short: as §1

[23] = target: Neu5Ac(a2-3)Gal(b1-4)[Fuc(a1-3)]GlcNAc(b1-3)Gal(b1-4)[Fuc(a1-3)]GlcNAc(b1-3)Gal(b1-4)[Fuc(a1-3)]GlcNAc
In short: as §1

[24] = target: Neu5Ac(a2-3)Gal(b1-4)[Fuc(a1-3)]GlcNAc6S
In short: as §1

[25] = target: Neu5Ac(a2-3)Gal6S(b1-4)GlcNAc
In short: as §1

[26] = target: Neu5Ac(a2-3)Gal6S(b1-4)[Fuc(a1-3)]GlcNAc
In short: as §1

Neu5Ac(a2-3)GalNAc = target: Neu5Ac(a2-3)GalNAc
In short: as §1

[27] = target: Neu5Ac(a2-3)GalNAc(b1-4)GlcNAc
In short: as §1

[28] = target: Neu5Ac(a2-3)[GalNAc(b1-4)]Gal(b1-4)Glc
In short: as §1

[29] = target: Neu5Ac(a2-3)[GalNAc(b1-4)]Gal(b1-4)GlcNAc
In short: as §1

[30] = target: Neu5Ac(a2-3)[Neu5Ac(a2-6)]GalNAc
In short: as §1

Neu5Ac(a2-6)Gal = target: Neu5Ac(a2-6)Gal
In short: as §1

Neu5Ac(a2-6)Gal(b1-4)Glc = target: Neu5Ac(a2-6)Gal(b1-4)Glc
In short: as §1

[31] = target: Neu5Ac(a2-6)Gal(b1-4)GlcNAc
In short: as §1

[32] = target: Neu5Ac(a2-6)Gal(b1-4)GlcNAc(b1-2)Man(a1-3)[Neu5Ac(a2-6)Gal(b1-4)GlcNAc(b1-2)Man(a1-6)]Man(b1-4)GlcNAc(b1-4)GlcNAc
In short: as §1

[33] = target: Neu5Ac(a2-6)Gal(b1-4)GlcNAc(b1-3)Gal(b1-4)GlcNAc
In short: as §1

B1: TIM-1 (Mus musculus), AAL35774 (protein)
chain: MNQIQVFISGLILLLPGAVDSYVEVKGVVGHPVTLPCTYSTYRGITTTCWGRGQCPSSACQNTLIWTNGHRVTYQKSSRYNLKGHISEGDVSLTIENSVESDSGLYCCRVEIPGWFNDQKVTFSLQVKPEIPTRPPTRPTTTRPTATGRPTTISTRSTHVPTSIRVSTSTPPTSTHTWTHKPEPTTFCPHETTAEVTGIPSHTPTDWNGTVTSSGDTWSNHTEAIPPGKPQKNPTKGFYVGICIAALLLLLLVSTVAITRYILMKRKSASLSVVAFRVSKIEALQNAAVVHSRAEDNIYIVEDRP
Neu5Ac(a2-3)Gal
  glycan array binding signal (z-score): -0.453
[1]
  glycan array binding signal (z-score): -0.392
[2]
  glycan array binding signal (z-score): -0.803
[3]
  glycan array binding signal (z-score): -0.718
[4]
  glycan array binding signal (z-score): 0.148
[5]
  glycan array binding signal (z-score): -0.118
[6]
  glycan array binding signal (z-score): 0.04
[7]
  glycan array binding signal (z-score): -0.296
[8]
  glycan array binding signal (z-score): -0.232
[9]
  glycan array binding signal (z-score): 0.05
[10]
  glycan array binding signal (z-score): -0.377
[11]
  glycan array binding signal (z-score): -0.044
[12]
  glycan array binding signal (z-score): -0.241
Neu5Ac(a2-3)Gal(b1-4)Glc
  glycan array binding signal (z-score): -0.275
[13]
  glycan array binding signal (z-score): -0.181
[14]
  glycan array binding signal (z-score): -0.782
[15]
  glycan array binding signal (z-score): -0.261
[16]
  glycan array binding signal (z-score): -0.569
[17]
  glycan array binding signal (z-score): -0.422
[18]
  glycan array binding signal (z-score): -0.523
[19]
  glycan array binding signal (z-score): 0.278
[20]
  glycan array binding signal (z-score): -0.451
[21]
  glycan array binding signal (z-score): -0.414
[22]
  glycan array binding signal (z-score): 0.09
[23]
  glycan array binding signal (z-score): 0.096
[24]
  glycan array binding signal (z-score): -0.546
[25]
  glycan array binding signal (z-score): -0.18
[26]
  glycan array binding signal (z-score): -0.631
Neu5Ac(a2-3)GalNAc
  glycan array binding signal (z-score): -0.457
[27]
  glycan array binding signal (z-score): -0.411
[28]
  glycan array binding signal (z-score): -0.433
[29]
  glycan array binding signal (z-score): -0.454
[30]
  glycan array binding signal (z-score): 0.386
Neu5Ac(a2-6)Gal
  glycan array binding signal (z-score): -0.601
Neu5Ac(a2-6)Gal(b1-4)Glc
  glycan array binding signal (z-score): 0.098
[31]
  glycan array binding signal (z-score): -0.391
[32]
  glycan array binding signal (z-score): -0.984
[33]
  glycan array binding signal (z-score): -0.107

From the supplement of paper PMC8728848
